Results on ten molecules are retold here after publication PMC11734925.

The chains behind the UniProt entries cited, without tags or fusion partners. Where a name states a change or a piece, a line headed by the entry shows the natural chain unless it says otherwise.
UniProt A1ZBF8: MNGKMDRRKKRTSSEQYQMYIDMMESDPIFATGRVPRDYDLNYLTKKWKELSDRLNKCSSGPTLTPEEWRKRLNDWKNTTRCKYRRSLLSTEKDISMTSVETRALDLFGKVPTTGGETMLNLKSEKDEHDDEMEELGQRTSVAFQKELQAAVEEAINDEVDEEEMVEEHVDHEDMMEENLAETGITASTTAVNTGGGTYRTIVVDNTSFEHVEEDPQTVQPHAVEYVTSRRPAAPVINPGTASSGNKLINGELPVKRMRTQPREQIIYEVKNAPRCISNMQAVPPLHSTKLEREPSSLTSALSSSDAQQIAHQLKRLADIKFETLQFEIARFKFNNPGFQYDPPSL
UniProt Q9VCH7: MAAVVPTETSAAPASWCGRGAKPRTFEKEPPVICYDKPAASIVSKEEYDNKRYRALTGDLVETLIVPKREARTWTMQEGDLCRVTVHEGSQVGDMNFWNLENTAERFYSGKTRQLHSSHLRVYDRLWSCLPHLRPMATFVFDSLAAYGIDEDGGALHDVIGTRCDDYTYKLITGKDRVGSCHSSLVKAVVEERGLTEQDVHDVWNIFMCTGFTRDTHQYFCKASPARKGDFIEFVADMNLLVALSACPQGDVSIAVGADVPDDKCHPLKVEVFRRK
UniProt Q9VGK3: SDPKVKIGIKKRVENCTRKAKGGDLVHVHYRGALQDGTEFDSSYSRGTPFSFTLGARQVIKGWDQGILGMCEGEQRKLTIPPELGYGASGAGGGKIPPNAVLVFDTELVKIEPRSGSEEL

Assay [1] addresses T1, GFP-D1 (D. melanogaster) (UniProt P22058).
T1 sequence: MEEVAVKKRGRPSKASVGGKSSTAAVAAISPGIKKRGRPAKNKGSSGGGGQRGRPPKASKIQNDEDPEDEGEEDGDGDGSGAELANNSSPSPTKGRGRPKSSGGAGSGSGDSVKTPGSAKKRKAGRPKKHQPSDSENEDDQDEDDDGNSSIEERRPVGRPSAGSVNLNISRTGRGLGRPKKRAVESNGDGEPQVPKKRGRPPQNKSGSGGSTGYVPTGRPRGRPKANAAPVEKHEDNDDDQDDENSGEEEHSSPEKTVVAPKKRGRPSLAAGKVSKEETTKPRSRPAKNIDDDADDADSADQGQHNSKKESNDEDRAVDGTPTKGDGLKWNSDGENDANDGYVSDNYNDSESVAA
The experiment in a line: affinity purification with mass spectrometry; GFP-D1 or GFP-Prod captured on anti-GFP nanobody magnetic beads from lysate of nuclei isolated from embryos (450 mM NaCl, 1% Triton-X, benzonase), 90 min at 4°C; washes with 450 mM NaCl; hits against the NLS-GFP control pulldown.

The target in assay [2] is GFP-Prod (D. melanogaster) (UniProt A1ZBF8). The description is as above.
For assay [3], the target named is T2, GFP-Piwi (D. melanogaster) (UniProt Q9VKM1).
T2 sequence: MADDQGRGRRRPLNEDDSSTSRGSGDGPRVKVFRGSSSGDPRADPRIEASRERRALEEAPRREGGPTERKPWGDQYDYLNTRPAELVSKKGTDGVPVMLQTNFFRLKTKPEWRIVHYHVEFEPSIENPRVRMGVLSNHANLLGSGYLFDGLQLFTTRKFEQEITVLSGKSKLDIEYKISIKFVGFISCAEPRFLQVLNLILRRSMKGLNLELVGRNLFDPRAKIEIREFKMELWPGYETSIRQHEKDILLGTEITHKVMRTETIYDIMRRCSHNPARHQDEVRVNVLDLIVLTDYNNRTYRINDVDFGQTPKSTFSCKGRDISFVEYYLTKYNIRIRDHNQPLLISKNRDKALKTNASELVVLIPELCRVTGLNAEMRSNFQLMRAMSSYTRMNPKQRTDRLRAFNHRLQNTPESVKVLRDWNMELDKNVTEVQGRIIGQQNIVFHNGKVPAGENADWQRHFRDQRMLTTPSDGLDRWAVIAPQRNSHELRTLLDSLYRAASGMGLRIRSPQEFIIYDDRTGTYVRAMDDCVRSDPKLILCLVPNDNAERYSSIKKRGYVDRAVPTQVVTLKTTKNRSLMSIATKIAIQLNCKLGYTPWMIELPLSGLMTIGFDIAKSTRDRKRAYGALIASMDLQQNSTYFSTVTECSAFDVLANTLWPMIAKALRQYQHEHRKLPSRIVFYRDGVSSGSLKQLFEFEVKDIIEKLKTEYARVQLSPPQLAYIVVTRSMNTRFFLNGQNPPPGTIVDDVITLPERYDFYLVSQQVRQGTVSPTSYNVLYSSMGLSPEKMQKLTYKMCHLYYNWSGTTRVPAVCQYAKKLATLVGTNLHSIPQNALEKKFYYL
The assay can be described thus: affinity purification with mass spectrometry; GFP-Piwi captured on anti-GFP nanobody magnetic beads from embryo lysate (lysed as the ovaries: 450 mM NaCl, 0.2% NP40, benzonase), 90 min at 4°C; hits against the NLS-GFP control pulldown.

Assay [4] has as its target T1, GFP-D1 (D. melanogaster). The assay can be described thus: affinity purification with mass spectrometry; GFP-D1 or GFP-Prod captured on anti-GFP nanobody magnetic beads from ovary lysate (450 mM NaCl, 0.2% NP40, benzonase), 90 min at 4°C; washes with 450 mM NaCl; hits against the NLS-GFP control pulldown.

These are yes or no findings as the source states them, for the method shown. In cells and extracts the contact can be indirect. A yes stands for co-enrichment or nearness to the bait. Other partners may have been found. For some assays here: Where a sequence is shown, tags or fusion partners need not be part of it.

As for CG10208 (from UniProt Q9VCH7), the binding entry (with GFP-D1 (D. melanogaster) [1]; in assay [2]; in assay [3]) was “binds” each time.

Regarding “Ugt35D1 (D. melanogaster (endogenous in embryos))”, the binding entry (with GFP-D1 (D. melanogaster) [1]; in assay [3]) was “binds” in each case.

For the molecule “Female independent of transformer (Fit) (D. melanogaster (endogenous in embryos))”, the binding entry (with GFP-D1 (D. melanogaster) [1]; in assay [3]) was “binds” in each case.

CG14715 (from UniProt Q9VGK3): the binding entry (in the assay with GFP-D1 (D. melanogaster) [1]; in assay [2]; in assay [3]) was “binds” each time.

B1: Mes-4 (protein, UniProt Q8MT36 1-1427)
chain: MKLSTDAHSEIEGDAAHGNVLCNSASDSLTATDEVAAGNDESVATEGDDVEIPRDTNNSTPVRLLDKPGQNPVQNGAQPAAEESELESQRQTPVQKQQQQRVSMVNRKRDLINLQSALSPKYIGYANANSPTPLSDSDDTIRTTRRRVNQAAALNNSSAGETLAHDNASPRTPGGGGGGGGDDSANQLLSKTYMSPIEKLLIKNGASSPNSTGFEAGSEDLGIRPIVRKHVKRKMKRVPKAKVTLELDEKNQQEVDEKSVKTEPIDEEVDRTDEAPTQEAQTTAISIKSETEAEHKAAVDVHIKQEDTIRLDIVNNPVESTSIVITEEPKDLEKSTEELAFALPLASSTEVDLKSPPDLSSTALATSIKSPSSVSIDSAKGLSIVTDPGWPTYQVGDLFWGKVFSYCFWPCMVCPDPLGQIVGNMPSHPQRSSLDNANVPIQVHVRFFADNGRRNWIKPENLLTFAGLKAFDDMREELRIKHGPKSAKYRQMVPKRTKVVIWRQAIEEAQAMTQIPYSDRLEKFYQTYENVVTLNRQKRKRTKYMMQDTSDVGSSLYDSTDNLHNKQGTQLLAVKRERSESPFSPAFSPVKSKNEKRAKRRKLSNGTEADTGSNSMAVTPSQTETTVDSSAYENPEFRQLLSAVMEYVMMNRSDEKVEKVLLSVVSNIWSLKQIQLRELERDLASGEIEEPLGSSVVGRGSGVGTIKRLSNRLMTMMVRRSMTPVVTPSTTPAPSEPDRRLSEPPKTKKPVNRPIEEVIEDILQLDSKYLFRGLSREPICKYCYQAGSDLVRCSRTCSSWLHADCLERKVTGAPMPKIGSRKALVIPPTSKSPSPDEDHVTADAKEVVAVGTSLVCHECNVGEPEGCVICHQVESPAVPSTPRKEDSSSHTPIEDKLLTCSQPMCGKRFHTSCCKYWPQASSSKHSARCPRHVCHTCVSDDPSGKFQQLGSSKLAKCVRCPATYHQLSKCIPAGTQMLNTTNIICPRHNIAKADAHVNVLWCYICVKGGELVCCETCPIAVHAHCRNIPIKTNESYICEECESGRLPLYGEIVWAKFNNFRWWPAIILPPTEVPSNILKKAHGENDFVVRFFGTHDHGWISRRRVYLYIEGDTGDGHKTKSQLFRNYTTGVEEASRFLPIIKARRQEQDMERQSGNKLHPPPYVKIKTNKAVPPLRFSQNLEDLSTCNCLPVDEHPCGPEAGCLNRMLFNECNPEYCKAGSLCENRMFEQRKSPRLEVVYMNERGFGLVNREPIAVGDFVIEYVGEVINHAEFQRRMEQKQRDRDENYYFLGVEKDFIIDAGPKGNLARFMNHSCEPNCETQKWTVNCIHRVGIFAIKDIPVNSELTFNYLWDDLMNNSKKACFCGAKRCSGEIGGKLKDDAVKAHAKLKQMRRAKASAVRIHVKPKKTPKVKHISADDEPMDAKDE
As for B1, the binding result in the assay with GFP-D1 (D. melanogaster) [1] is “binds”.

B2: Borealin (Borr) (protein, UniProt Q9VLD6 1-315)
chain: MPRTKIPKNSKRNREVANREEKVRLYELKMDSRLISIDSLETKFLSAVDHQVKTLLGQVQKELANLKMPEVLRLFEELDRFSDFKASDQTQLLASMSMSGSAIEGHAPSATGSRNDEEDSSIGASGGSILAAHTGSLLRSTKAMRTPGPLHSARARRARRSRSACGDLNILHSAKPPSISSSSSSSRNSRSKLRTPMASRAKAFSADRTPLKQKQMRSGSPTTPPMAFLRYPKPGEVALSKYGSPMVAQVMPDKFANVNIPIRNGVLSLRPKKLDADEVESNLLENLDEDTLNQIKTLHENLQMIVNKASQAVFK
Take B2: the binding entry with GFP-D1 (D. melanogaster) [1] is “binds”.

B3: Smn (protein, UniProt Q9VV74 1-226)
chain: MSDETNAAVWDDSLLVKTYDESVGLAREALARRLADSTNKREEENAAAAEEEAGEISATGGATSPEPVSFKVGDYARATYVDGVDYEGAVVSINEEKGTCVLRYLGYENEQEVLLVDLLPSWGKRVRREQFLIAKKDEDEQLSRPKASAGSHSKTPKSSRRSRISGGLVMPPMPPVPPMIVGQGDGAEQDFVAMLTAWYMSGYYTGLYQGKKEASTTSGKKKTPKK
Consider B3, for which the binding entry in the assay with GFP-D1 (D. melanogaster) [4] is listed as “binds”.

B4: Aurora B (protein, UniProt Q9VKN7 1-329)
chain: MTLSRAKHANRNHLPHLLAKVPEEHQEPIKNMCLKMMSHDAYGQPYDWSPRDFEMGAHLGRGKFGRVYLARERHSHYLVAMKVMFKEELRKGCVQRQVLREIEIQSRLKHPHILRLLTWFHDESRIYLALEIASEGELFKHLRGAPNHRFDEPRSAKYTYQVANALNYCHLNNVIHRDLKPENILLTSTDDLKLADFGWSAHTPNNKRRTLCGTLDYLPPEMVDGNSYDDSVDQWCLGILCYEFVVGCPPFESNSTESTYSKIRRMEISYPSHLSKGCKELIGGLLRKESKGRITLVDVMTHYWVKAGMAERELQLQKRERGKENTARN
On to B4, for which the binding entry in the assay with GFP-D1 (D. melanogaster) [1] is listed as “binds”.

B5: bocks (protein, UniProt Q709R6 1-399)
chain: MSDLSYLDTLGNKELLAKCLEHGLPGVPVTDSTRSVIIRRLKAKITGVPLNKSKSASKKAIPRRETVHGSQVTTPTSEPVRRTPGKSAGRTSSNNNKISEQSRRTIAYGLDNTSISGRSVQTTTTVSDMSSQSEDDDSYMVDSPVPNYSKDQQPRRYVSLAKSGVLTTSYTREVDQPLYEQEDIPRSYTYERPHVPAATLHALPTYEPRIEPSTYRPTDLGFSRPLLTQTNLNSTSYEESSTYNPKLSPISPRNTFSGSARPFGGPAPAPAPIRQRQSVPVSGSNLARGRLLQPTTAVNTLYPQLNEFYDQPNDAGEPMETESESEVEEVPINSHFQKNRFSPLARKPLVRHHDQVSPMAQFRALAVSLDQKYNLKFYLILVVSVMLATMVYVVLTPNA
Take B5: in assay [2], the binding result is “binds”.

B6: Maelstrom (Mael) (protein, UniProt Q9VNS0 1-459)
chain: MAPKKHSGFMMFVNEWRNRNAEGRRMTLAQAVSHCGTIWEKMNTQQRGPYNSGGKDANVAQRAKRESSNGHGQVDKAQREATESLMDMKRTIERLVLNAKMSHDLENAKFVFVAFNYFTKALTTDVYVPAEFAACEYSLKEGIRSIYSTMIDPGQIIFGQGSDALLHSSTTHDLPLPPNALGEKNMTKLYRNIVDYLSKCQGKGKTLVVFTPAENITMVKSCFRYLECDDDFRDGGEKIQVFDIQYLLFILKKEVMNVADLNDEKINKFATDAFFKKDFFEFTAGIACQYHEDNDRTKYCTQSMVTRWAYTFTDFMCGDLAITVQPGKHIPAQTKPNYLIISSYASSLDHESSFDSFYSLPGSGVKKESQPEACSLSSSRLSVASSSYKPIDHTSFAANLNEVSEFPSLGMRNSSKHHGIAASAQREWNARNLPTHSRLIRKVSDNDFSVNGADGKLKK
With B6, the binding result (with GFP-D1 (D. melanogaster) [1]; in assay [2]) was “binds” throughout.
